Source: publication PMC4106786
These are yes or no findings as the source states them, for the method shown. In cells and extracts the contact can be indirect. Some results given as binding are weak or reduced against the parent protein; the word gives no strength.

By UniProt entry, the sequences of proteins in these tests, tags left out. Where a name states a change or a piece, a line headed by the entry shows the natural chain unless it says otherwise. Chains listed by the source or under a name are the forms on record and can include a tag or linker.
UniProt Q9H4E5: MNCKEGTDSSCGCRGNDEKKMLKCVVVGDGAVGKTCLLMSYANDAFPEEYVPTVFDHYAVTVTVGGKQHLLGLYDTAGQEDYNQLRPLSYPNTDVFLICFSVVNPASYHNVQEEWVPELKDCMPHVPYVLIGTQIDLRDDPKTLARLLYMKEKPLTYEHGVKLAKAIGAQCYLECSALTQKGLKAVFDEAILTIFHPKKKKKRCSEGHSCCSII
GFP-tagged daRhoJ (Q9H4E5, form named): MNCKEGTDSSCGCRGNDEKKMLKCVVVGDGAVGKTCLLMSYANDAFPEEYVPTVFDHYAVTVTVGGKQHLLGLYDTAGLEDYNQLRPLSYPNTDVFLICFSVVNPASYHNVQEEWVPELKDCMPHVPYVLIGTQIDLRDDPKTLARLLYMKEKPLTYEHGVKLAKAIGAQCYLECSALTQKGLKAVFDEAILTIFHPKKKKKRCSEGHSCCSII

Biological target: GFP-tagged daRhoJ (UniProt Q9H4E5)
Test: co-IP; lysates of HUVECs stably expressing GFP or GFP–daRhoJ incubated with GFP-trap A beads for 1 hour at 4°C in Rho-assay lysis buffer (1% NP40, 1% N-octyl-β-D-glucopyranoside, 25 mM HEPES pH 7.5, 30 mM MgCl2, 150 mM NaCl); western blot for β-PIX, GIT1 and GIT2

binding: binds
B1: GIT2 (protein, UniProt Q14161 1-759)
chain: MSKRLRSSEVCADCSGPDPSWASVNRGTFLCDECCSVHRSLGRHISQVRHLKHTPWPPTLLQMVETLYNNGANSIWEHSLLDPASIMSGRRKANPQDKVHPNKAEFIRAKYQMLAFVHRLPCRDDDSVTAKDLSKQLHSSVRTGNLETCLRLLSLGAQANFFHPEKGNTPLHVASKAGQILQAELLAVYGADPGTQDSSGKTPVDYARQGGHHELAERLVEIQYELTDRLAFYLCGRKPDHKNGQHFIIPQMADSSLDLSELAKAAKKKLQSLSNHLFEELAMDVYDEVDRRETDAVWLATQNHSALVTETTVVPFLPVNPEYSSTRNQGRQKLARFNAHEFATLVIDILSDAKRRQQGSSLSGSKDNVELILKTINNQHSVESQDNDQPDYDSVASDEDTDLETTASKTNRQKSLDSDLSDGPVTVQEFMEVKNALVASEAKIQQLMKVNNNLSDELRIMQKKLQTLQSENSNLRKQATTNVYQVQTGSEYTDTSNHSSLKRRPSARGSRPMSMYETGSGQKPYLPMGEASRPEESRMRLQPFPAHIGRSALVTSSSSLPSFPSTLSWSRDESARRASRLEKQNSTPESDYDNTPNDMEPDGMGSSRKGRQRSMVWPGDGLVPDTAEPHVAPSPTLPSTEDVIRKTEQITKNIQELLRAAQENKHDSYIPCSERIHVAVTEMAALFPKKPKSDMVRTSLRLLTSSAYRLQSECKKTLPGDPGSPTDVQLVTQQVIQCAYDIAKAAKQLVTITTKENNN
